The other results are listed elsewhere or left out. Most entries show no effect beyond the scatter of the controls.
Compound: CN[C@@H]1C[C@H]2O[C@@](C)([C@@H]1OC)n1c3ccccc3c3c4c(c5c6ccccc6n2c5c31)C(=O)NC4 [staurosporine]
Assay: log2 fold change of tryptic peptide abundance, ligand vs vehicle (limited proteolysis) (log2 ratio); higher = more trypsin-susceptible (destabilized)
Details: ligand concentration: 20 uM; sample: K562 cleared lysate; digestion: 4 min, 22 C (HT-PELSA RT4min, Orbitrap Astral)

The chains behind the UniProt entries cited, without tags or fusion partners. Where a name states a change or a piece, a line headed by the entry shows the natural chain unless it says otherwise.
UniProt Q9UBZ4: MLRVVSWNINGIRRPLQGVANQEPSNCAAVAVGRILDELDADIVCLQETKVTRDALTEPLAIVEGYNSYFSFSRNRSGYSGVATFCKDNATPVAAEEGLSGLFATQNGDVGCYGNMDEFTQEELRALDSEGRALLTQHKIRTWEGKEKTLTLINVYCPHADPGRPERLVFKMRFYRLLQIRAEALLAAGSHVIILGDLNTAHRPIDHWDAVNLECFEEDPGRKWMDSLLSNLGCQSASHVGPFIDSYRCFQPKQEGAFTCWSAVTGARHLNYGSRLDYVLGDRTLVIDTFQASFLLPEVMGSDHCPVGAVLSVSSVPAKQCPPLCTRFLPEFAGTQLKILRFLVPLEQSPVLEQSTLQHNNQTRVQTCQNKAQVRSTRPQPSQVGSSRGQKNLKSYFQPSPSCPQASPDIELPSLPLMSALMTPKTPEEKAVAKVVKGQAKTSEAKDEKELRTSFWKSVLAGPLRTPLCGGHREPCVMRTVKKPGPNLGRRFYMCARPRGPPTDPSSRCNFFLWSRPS
UniProt Q9UHQ7: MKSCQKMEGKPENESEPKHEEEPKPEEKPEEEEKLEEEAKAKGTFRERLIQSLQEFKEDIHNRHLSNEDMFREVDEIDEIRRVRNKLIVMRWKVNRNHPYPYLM
UniProt Q9UG56: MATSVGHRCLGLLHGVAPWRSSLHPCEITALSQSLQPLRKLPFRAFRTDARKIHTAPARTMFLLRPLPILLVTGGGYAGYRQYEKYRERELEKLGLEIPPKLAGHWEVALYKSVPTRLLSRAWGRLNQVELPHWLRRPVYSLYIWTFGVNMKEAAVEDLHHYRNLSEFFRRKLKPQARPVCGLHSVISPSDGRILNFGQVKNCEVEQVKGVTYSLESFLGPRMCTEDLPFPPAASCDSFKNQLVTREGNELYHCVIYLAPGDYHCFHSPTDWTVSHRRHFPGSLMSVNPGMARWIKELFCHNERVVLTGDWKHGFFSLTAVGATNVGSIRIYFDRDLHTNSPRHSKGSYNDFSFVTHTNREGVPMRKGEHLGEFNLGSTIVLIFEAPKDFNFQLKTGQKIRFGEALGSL
UniProt Q9NZC3: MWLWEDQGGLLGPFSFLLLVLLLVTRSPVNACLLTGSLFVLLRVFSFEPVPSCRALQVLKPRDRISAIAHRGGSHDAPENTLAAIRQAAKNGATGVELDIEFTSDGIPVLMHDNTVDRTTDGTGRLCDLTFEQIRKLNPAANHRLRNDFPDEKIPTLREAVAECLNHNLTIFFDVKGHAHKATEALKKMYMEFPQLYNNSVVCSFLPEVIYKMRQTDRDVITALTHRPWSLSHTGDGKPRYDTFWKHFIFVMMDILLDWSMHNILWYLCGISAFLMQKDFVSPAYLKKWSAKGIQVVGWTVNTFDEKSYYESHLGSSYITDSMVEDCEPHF
UniProt Q9UJT1: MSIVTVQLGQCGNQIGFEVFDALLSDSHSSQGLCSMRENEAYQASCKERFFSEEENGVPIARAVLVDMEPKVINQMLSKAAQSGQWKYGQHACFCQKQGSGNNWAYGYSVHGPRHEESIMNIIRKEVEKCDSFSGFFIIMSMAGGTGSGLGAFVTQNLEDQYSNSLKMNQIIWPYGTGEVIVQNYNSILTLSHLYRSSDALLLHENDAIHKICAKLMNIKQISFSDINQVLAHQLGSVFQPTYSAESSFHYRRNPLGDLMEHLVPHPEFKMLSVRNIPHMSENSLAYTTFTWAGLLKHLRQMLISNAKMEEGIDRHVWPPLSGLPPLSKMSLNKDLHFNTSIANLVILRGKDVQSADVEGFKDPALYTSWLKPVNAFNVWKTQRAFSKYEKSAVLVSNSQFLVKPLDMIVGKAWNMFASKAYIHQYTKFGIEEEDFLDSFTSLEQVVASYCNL
UniProt Q9UIQ6, whole entry: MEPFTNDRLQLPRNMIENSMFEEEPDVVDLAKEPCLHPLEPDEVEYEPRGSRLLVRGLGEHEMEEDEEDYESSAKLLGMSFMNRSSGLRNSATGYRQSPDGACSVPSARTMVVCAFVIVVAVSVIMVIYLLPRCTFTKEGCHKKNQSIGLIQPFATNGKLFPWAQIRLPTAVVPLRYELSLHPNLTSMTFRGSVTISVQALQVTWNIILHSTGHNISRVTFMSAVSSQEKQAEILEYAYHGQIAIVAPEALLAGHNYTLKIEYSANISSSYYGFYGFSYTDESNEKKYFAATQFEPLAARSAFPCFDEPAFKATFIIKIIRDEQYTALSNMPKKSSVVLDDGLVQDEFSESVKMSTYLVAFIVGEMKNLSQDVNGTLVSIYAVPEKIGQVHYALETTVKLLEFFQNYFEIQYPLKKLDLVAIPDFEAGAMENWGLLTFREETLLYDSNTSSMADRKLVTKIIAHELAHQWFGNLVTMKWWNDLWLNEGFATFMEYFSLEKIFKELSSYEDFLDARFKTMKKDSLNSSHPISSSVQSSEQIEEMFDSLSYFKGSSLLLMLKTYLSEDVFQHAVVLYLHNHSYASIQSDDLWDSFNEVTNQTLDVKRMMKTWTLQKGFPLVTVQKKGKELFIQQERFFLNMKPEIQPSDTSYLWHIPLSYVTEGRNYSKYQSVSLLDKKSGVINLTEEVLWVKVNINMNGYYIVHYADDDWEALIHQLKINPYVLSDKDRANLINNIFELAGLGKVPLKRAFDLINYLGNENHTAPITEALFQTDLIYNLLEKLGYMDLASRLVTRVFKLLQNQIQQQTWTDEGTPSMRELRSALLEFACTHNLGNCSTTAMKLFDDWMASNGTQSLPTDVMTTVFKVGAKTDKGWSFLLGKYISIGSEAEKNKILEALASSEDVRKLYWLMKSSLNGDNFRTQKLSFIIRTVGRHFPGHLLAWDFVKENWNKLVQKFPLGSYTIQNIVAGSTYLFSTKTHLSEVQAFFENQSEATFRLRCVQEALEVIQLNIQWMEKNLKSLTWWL
UniProt Q9UIA9: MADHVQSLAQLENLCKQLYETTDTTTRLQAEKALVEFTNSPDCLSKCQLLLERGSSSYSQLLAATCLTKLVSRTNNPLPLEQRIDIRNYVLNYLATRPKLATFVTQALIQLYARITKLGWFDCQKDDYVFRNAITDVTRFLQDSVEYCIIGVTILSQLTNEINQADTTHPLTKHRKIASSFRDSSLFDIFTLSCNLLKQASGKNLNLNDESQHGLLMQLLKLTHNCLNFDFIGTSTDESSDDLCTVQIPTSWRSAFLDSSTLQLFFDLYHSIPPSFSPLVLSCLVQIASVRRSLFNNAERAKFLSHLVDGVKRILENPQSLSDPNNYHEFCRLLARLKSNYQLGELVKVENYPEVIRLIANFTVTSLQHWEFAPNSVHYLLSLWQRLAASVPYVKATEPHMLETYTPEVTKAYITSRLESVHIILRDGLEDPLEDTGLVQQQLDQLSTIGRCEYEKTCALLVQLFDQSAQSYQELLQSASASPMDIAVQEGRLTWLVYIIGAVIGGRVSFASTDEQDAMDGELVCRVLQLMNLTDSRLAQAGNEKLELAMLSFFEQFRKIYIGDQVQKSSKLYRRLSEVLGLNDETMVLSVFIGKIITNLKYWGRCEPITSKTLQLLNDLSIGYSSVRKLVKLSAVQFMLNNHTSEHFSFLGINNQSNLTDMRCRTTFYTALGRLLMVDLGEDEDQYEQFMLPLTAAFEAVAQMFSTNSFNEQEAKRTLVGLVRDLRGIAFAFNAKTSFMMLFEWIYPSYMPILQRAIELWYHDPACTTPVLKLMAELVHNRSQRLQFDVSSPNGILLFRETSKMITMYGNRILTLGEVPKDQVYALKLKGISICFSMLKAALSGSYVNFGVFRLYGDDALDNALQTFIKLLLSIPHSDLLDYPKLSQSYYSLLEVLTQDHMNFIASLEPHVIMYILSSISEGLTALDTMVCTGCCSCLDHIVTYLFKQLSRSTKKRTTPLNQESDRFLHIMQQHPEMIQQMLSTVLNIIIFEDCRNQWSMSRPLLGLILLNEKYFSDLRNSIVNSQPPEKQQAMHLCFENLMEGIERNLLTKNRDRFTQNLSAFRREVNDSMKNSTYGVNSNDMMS
UniProt Q9NZD4: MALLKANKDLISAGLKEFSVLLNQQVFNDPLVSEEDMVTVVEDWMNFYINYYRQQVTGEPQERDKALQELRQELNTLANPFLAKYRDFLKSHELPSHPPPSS
UniProt Q9UJU6: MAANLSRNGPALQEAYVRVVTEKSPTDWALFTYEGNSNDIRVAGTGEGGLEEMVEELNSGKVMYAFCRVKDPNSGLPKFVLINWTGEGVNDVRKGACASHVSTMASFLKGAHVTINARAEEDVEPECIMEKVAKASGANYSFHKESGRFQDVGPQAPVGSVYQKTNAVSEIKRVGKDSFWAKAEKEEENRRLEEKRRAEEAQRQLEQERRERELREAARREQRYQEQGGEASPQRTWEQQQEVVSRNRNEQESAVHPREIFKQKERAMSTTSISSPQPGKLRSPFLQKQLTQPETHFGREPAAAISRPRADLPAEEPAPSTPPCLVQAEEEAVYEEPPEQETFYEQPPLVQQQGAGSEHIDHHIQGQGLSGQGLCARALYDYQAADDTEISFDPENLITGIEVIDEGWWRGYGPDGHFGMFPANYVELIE
UniProt Q9UET6: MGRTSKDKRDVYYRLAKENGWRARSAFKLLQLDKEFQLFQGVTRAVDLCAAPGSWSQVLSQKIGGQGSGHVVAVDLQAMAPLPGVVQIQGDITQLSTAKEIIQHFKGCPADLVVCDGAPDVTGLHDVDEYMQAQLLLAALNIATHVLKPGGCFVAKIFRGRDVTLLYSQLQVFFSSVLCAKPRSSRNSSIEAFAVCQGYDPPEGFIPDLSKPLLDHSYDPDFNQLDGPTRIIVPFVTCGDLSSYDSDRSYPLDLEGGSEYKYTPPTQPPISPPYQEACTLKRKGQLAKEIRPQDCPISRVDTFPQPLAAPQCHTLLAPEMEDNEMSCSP
UniProt Q9NZN5: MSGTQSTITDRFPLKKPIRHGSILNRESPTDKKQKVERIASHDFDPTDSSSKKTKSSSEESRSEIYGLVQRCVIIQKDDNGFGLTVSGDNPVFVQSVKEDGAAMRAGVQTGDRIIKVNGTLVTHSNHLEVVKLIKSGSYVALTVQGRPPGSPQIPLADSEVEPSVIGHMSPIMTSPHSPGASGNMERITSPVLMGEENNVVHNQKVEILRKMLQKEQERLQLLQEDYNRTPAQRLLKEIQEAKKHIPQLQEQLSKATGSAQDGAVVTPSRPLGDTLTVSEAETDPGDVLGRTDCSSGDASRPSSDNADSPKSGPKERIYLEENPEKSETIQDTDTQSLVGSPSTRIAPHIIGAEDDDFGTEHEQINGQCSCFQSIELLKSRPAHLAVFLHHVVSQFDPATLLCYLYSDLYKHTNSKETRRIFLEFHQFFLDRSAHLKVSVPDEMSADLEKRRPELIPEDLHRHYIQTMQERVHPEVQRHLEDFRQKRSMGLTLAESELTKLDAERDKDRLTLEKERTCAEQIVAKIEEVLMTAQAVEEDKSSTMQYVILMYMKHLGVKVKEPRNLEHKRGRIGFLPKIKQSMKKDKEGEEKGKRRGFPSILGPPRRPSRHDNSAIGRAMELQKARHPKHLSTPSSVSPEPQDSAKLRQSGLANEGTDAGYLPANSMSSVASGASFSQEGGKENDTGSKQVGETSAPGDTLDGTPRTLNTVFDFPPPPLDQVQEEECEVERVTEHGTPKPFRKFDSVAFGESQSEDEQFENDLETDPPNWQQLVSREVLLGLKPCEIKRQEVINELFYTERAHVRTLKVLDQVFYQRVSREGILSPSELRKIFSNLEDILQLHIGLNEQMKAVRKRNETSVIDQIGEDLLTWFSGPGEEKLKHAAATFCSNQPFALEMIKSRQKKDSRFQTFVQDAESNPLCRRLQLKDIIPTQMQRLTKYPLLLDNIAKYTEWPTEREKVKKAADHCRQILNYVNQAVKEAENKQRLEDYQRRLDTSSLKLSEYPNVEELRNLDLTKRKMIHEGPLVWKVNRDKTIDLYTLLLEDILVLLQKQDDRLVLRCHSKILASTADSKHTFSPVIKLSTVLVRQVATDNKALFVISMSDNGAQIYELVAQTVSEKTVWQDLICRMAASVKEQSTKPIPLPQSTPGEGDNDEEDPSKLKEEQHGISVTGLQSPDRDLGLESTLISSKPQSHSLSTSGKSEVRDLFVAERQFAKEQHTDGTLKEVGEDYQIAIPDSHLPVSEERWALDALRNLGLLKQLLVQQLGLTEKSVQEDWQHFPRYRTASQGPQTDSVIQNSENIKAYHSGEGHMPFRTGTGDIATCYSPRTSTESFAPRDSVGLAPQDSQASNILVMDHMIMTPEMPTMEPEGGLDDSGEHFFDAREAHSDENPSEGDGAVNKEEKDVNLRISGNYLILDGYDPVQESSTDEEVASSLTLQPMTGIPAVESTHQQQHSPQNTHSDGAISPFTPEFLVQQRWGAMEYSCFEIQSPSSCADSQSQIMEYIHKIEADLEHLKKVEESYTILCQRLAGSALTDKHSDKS
UniProt Q9UGY1: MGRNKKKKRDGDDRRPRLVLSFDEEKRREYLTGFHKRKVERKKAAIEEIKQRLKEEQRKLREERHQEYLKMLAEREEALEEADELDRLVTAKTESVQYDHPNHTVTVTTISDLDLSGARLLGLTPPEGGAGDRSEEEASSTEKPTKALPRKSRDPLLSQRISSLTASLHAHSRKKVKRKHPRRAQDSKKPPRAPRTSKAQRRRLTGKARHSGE

Row | Target | log2 fold change
1 | BAIAP2L1 (peptide sequence: SVSVATGLNMMKK, peptide start residue: 329) (UniProt Q9UHR4) | 0.556
2 | APEX2 (peptide sequence: STRPQPSQVGSSR, peptide start residue: 376) (UniProt Q9UBZ4) | -0.281
3 | HMGXB4 (peptide sequence: DEQGALLLGHELQSFLK, peptide start residue: 230) (UniProt Q9UGU5) | -0.155
4 | ANAPC7 (peptide sequence: DMAAAGLHSNVR, peptide start residue: 9) (UniProt Q9UJX3) | 0.684
5 | TCEAL9 (peptide sequence: HLSNEDMFR, peptide start residue: 64) (UniProt Q9UHQ7) | -0.107
6 | SPG21 (peptide sequence: GSLGISQEEQ, peptide start residue: 299) (UniProt Q9NZD8) | -0.216
7 | CWC15 (peptide sequence: RRWDDDVVFK, peptide start residue: 186) (UniProt Q9P013) | -0.184
8 | PISD (peptide sequence: VVLTGDWK, peptide start residue: 305) (UniProt Q9UG56) | 0.278
9 | GDE1 (peptide sequence: EAVAECLNHNLTIFFDVKGHAHK, peptide start residue: 159) (UniProt Q9NZC3) | -0.149
10 | DHCR7 (peptide sequence: SLDGVTNDR, peptide start residue: 14) (UniProt Q9UBM7) | -0.0837
11 | TJP2 (peptide sequence: GSYGSDAEEEEYRQQLSEHSKR, peptide start residue: 1155) (UniProt Q9UDY2) | 0.855
12 | TUBD1 (peptide sequence: QGSGNNWAYGYSVHGPR, peptide start residue: 98) (UniProt Q9UJT1) | 0.409
13 | LNPEP (peptide sequence: LLGMSFMNR, peptide start residue: 76) (UniProt Q9UIQ6) | 0.0865
14 | XPO7 (peptide sequence: VLQLMNLTDSR, peptide start residue: 527) (UniProt Q9UIA9) | 0.31
15 | AHSP (peptide sequence: SHELPSHPPPSS, peptide start residue: 91) (UniProt Q9NZD4) | 0.0248
16 | SPAST (peptide sequence: VYVSLPNEETR, peptide start residue: 504) (UniProt Q9UBP0) | 0.137
17 | SEC63 (peptide sequence: KKPTPVLLPQSK, peptide start residue: 534) (UniProt Q9UGP8) | -0.138
18 | DBNL (peptide sequence: VKDPNSGLPK, peptide start residue: 69) (UniProt Q9UJU6) | 0.238
19 | AFF4 (peptide sequence: LSSEHYSSQSHGNSMTELKPSSK, peptide start residue: 270) (UniProt Q9UHB7) | -0.594
20 | FTSJ1 (peptide sequence: AVDLCAAPGSWSQVLSQK, peptide start residue: 45) (UniProt Q9UET6) | 0.362
21 | ARHGEF12 (peptide sequence: SVQEDWQHFPR, peptide start residue: 1273) (UniProt Q9NZN5) | 0.304
22 | LRWD1 (peptide sequence: VTAHWEK, peptide start residue: 145) (UniProt Q9UFC0) | 0.371
23 | CGGBP1 (peptide sequence: LFCTSCNVVLNHVRK, peptide start residue: 41) (UniProt Q9UFW8) | -0.22
24 | UniProt Q9P2K6 (peptide sequence: LVLDFINAGGAR, peptide start residue: 64) | 0.23
25 | MRM2 (peptide sequence: ILEVLPGR, peptide start residue: 139) (UniProt Q9UI43) | -0.121
26 | SRP68 (peptide sequence: AAIEAFNK, peptide start residue: 206) (UniProt Q9UHB9) | 0.245
27 | NOL12 (peptide sequence: LVLSFDEEK, peptide start residue: 18) (UniProt Q9UGY1) | -0.171
28 | LIMA1 (peptide sequence: KGTLTVLKK, peptide start residue: 66) (UniProt Q9UHB6) | 0.585

An excerpt of these results, tab-delimited.
Row	Target	log2 fold change
12	TUBD1 (peptide sequence: QGSGNNWAYGYSVHGPR, peptide start residue: 98) (UniProt Q9UJT1)	0.409
23	CGGBP1 (peptide sequence: LFCTSCNVVLNHVRK, peptide start residue: 41) (UniProt Q9UFW8)	-0.22

— the supplement of paper PMC12819154, “High-throughput peptide-centric local stability assay extends protein–ligand identification to membrane proteins, tissues and bacteria” (Nature Structural & Molecular Biology, 2025)
